# According to the supplement of paper PMC10849652:
# Sequences of proteins named here, by UniProt entry; tags and fusion partners are left off. A change or cut given only in a name is not applied to a line headed by its entry.
# UniProt Q8N1F7: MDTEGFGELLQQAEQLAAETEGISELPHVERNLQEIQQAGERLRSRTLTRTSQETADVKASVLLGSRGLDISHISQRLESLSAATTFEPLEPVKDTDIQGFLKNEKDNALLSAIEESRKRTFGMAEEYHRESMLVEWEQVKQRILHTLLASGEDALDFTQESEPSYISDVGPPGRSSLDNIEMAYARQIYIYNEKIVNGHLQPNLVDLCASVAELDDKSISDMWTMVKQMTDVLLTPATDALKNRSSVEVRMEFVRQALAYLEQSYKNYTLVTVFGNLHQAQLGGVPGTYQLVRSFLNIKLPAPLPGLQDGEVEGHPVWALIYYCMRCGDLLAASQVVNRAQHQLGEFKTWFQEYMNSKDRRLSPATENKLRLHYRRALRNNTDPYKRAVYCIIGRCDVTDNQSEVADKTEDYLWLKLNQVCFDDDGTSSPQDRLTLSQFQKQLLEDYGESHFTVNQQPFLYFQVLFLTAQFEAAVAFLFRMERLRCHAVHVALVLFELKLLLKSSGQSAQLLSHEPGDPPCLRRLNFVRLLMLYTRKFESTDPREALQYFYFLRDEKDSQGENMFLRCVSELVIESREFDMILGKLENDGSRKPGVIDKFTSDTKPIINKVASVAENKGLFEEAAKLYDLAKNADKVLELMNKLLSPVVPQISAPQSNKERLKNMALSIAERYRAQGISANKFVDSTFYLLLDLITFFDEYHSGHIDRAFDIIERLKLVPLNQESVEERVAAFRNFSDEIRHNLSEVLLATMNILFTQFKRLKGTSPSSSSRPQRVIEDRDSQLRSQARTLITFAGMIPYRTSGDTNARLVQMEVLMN
# UniProt Q8NFH5: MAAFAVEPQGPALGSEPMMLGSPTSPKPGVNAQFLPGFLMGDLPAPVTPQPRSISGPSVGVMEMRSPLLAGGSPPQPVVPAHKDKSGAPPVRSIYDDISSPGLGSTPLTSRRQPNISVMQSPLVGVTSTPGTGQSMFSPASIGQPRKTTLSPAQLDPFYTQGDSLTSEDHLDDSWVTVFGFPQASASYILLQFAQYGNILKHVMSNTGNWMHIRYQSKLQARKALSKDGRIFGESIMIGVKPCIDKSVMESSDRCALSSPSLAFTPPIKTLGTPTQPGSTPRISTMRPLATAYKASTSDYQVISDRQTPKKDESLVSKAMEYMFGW
# UniProt P00480: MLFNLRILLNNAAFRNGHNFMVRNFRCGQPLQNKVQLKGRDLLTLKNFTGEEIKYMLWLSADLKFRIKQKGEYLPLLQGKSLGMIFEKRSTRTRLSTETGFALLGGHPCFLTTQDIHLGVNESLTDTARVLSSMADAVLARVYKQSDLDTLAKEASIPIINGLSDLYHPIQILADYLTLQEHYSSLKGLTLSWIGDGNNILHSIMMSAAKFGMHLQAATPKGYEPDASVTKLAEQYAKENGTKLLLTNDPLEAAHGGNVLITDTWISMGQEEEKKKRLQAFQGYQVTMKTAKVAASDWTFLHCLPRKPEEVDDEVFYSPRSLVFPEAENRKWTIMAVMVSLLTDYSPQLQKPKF
# UniProt Q08J23, whole entry, looked up: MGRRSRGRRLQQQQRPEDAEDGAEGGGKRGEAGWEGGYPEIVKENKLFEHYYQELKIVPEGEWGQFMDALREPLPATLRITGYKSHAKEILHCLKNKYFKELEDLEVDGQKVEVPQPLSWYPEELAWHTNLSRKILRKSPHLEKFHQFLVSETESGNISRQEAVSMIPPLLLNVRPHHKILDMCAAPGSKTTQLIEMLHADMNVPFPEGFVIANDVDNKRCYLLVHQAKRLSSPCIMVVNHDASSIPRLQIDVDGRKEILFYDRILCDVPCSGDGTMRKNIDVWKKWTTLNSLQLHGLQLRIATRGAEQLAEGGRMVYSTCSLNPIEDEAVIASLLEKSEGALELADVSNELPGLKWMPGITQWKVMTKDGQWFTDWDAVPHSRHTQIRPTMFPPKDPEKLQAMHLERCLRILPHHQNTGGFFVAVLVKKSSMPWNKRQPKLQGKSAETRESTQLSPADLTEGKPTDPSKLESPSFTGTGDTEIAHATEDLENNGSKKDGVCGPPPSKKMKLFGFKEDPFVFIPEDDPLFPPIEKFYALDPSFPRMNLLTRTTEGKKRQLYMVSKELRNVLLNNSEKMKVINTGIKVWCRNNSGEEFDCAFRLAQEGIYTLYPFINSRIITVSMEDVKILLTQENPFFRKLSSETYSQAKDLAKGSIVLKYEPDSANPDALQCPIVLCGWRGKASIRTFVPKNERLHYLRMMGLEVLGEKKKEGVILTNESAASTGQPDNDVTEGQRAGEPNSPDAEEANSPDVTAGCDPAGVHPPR
# UniProt Q9Y266: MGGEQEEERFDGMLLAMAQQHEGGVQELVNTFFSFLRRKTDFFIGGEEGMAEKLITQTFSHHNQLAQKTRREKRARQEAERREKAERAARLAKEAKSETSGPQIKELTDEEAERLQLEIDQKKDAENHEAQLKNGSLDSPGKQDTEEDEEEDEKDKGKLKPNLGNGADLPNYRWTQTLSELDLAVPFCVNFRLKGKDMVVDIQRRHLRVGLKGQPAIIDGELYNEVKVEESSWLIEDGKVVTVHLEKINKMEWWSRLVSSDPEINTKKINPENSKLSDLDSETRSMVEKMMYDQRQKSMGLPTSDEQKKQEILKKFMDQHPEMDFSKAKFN
# UniProt Q9BQG2: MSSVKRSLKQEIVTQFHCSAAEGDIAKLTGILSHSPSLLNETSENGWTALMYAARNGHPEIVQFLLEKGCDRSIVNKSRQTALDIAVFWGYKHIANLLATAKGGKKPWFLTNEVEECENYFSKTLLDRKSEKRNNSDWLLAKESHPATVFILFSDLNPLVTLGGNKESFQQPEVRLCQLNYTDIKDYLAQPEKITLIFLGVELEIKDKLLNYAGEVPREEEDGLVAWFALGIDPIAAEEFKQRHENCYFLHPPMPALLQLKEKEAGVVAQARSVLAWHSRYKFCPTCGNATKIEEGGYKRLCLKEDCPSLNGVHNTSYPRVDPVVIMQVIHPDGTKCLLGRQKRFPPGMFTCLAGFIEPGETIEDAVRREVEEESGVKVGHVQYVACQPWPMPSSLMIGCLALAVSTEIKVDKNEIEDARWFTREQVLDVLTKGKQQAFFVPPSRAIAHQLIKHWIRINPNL
# UniProt Q96SU4: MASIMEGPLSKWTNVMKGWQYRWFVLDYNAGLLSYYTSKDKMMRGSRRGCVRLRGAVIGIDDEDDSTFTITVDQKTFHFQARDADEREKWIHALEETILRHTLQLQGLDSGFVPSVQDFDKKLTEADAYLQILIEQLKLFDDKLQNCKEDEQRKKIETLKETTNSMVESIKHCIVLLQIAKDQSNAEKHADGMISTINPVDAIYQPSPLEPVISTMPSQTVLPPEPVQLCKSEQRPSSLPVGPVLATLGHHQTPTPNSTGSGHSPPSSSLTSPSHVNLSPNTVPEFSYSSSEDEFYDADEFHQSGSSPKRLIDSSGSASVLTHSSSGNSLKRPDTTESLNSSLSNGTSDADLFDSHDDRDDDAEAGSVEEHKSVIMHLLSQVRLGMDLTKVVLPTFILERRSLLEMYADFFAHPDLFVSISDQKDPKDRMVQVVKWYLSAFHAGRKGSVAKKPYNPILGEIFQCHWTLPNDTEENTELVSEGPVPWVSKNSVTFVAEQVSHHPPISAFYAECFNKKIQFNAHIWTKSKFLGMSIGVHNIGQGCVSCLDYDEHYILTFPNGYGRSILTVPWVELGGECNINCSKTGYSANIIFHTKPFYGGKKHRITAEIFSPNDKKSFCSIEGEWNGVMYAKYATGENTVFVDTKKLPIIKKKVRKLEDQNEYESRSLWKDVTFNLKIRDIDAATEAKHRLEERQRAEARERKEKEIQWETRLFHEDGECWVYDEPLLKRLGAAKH
# UniProt P07237: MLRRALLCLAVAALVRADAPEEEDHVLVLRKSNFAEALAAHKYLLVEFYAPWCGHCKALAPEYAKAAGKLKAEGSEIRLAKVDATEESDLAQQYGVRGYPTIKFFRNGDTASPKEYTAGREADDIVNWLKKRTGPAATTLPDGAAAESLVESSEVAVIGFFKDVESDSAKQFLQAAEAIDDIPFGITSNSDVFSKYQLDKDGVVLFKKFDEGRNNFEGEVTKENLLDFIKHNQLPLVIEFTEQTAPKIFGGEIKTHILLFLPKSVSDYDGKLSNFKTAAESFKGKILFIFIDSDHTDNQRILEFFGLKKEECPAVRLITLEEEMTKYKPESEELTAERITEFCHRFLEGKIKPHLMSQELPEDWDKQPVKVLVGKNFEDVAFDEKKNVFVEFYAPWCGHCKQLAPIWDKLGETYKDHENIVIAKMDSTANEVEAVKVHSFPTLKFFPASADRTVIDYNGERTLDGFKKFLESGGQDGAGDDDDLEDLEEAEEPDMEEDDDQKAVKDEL
# UniProt Q6PK18: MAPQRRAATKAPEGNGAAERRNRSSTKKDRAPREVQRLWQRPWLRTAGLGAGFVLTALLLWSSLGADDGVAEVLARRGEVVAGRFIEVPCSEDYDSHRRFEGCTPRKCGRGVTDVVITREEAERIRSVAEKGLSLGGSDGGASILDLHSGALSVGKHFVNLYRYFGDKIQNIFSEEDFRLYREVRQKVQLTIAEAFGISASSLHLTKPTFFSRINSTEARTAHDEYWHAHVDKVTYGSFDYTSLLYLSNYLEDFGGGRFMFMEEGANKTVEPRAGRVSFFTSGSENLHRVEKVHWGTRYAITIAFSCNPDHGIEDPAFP
# UniProt Q9BW91: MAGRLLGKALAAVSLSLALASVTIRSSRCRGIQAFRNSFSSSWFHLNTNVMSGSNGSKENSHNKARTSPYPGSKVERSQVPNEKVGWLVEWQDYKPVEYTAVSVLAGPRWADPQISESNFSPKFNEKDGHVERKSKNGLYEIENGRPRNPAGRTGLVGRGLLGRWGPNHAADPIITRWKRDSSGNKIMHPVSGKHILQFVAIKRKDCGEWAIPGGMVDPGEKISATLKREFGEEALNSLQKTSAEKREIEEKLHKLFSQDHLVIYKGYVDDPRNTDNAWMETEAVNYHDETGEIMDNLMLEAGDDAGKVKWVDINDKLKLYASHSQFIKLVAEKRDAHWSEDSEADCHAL
# UniProt Q9BSD7: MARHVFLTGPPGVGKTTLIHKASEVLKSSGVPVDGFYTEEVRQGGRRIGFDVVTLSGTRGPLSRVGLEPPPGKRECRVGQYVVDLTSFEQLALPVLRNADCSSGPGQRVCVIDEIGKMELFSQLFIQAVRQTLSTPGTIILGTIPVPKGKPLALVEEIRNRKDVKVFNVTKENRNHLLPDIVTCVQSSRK
# UniProt P55809: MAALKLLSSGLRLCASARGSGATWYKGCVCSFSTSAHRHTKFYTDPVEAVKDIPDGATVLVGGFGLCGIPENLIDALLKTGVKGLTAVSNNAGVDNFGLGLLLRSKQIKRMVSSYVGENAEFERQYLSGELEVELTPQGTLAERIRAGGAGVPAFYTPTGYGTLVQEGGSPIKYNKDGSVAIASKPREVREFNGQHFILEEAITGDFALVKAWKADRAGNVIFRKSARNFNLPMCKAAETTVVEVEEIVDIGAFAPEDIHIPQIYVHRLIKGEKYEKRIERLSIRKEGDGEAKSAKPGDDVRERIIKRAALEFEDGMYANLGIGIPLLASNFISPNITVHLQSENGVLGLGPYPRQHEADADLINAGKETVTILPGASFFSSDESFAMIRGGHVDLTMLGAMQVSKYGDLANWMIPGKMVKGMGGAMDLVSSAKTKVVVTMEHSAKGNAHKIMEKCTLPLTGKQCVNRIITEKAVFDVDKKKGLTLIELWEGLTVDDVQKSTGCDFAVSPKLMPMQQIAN
# UniProt Q9Y5Y2: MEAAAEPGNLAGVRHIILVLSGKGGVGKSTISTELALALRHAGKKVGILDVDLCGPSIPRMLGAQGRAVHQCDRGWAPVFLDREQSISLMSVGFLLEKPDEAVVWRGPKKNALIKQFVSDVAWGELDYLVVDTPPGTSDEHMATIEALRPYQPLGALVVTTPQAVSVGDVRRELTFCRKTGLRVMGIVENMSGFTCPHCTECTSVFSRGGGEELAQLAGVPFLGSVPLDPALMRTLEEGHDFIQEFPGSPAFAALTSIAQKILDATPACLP
# UniProt P61970, whole entry, looked up: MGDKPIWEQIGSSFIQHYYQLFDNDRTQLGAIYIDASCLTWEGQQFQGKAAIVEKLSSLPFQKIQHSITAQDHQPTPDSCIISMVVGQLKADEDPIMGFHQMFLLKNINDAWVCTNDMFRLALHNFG
# UniProt Q7Z3B4: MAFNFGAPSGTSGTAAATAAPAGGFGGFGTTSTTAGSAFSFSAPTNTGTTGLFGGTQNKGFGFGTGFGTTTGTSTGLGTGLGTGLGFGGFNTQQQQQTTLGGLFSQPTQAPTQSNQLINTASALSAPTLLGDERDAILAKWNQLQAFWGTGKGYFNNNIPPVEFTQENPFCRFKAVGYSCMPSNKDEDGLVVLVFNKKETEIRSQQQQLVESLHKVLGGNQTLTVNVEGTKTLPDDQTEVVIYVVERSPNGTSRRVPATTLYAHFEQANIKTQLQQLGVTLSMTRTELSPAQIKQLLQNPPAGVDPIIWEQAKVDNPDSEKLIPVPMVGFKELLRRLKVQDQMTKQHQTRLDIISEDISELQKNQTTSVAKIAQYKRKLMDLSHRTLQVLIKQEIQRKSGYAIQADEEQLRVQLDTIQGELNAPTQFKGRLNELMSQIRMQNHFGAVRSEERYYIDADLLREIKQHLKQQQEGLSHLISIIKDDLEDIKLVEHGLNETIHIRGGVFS
# Some of the results follow.
# Tests used:
# Assay in all cases: log2 fold change, soluble protein after heating vs DMSO (PISA); higher = thermal stabilisation; K562 cells, 10 uM, 30 min; active = over 0.2 and 3.5 SD of the protein, either way, in both replicates (recomputed)
# [1] = compound: CN1CCN(CCOc2cc(OC3CCOCC3)c3c(Nc4c(Cl)ccc5c4OCO5)ncnc3c2)CC1 [saracatinib]
# Summary of the method: (§1)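 Aliquots of K562 cells (2×10^6 cells/mL) treated with 10 μM compound for 30 min were heated for 3 min over 48°C-58°C. After pooling and extraction in PBS with 0.5% NP-40 at 4°C, soluble protein from a 21,000xg, 90 min spin was quantified by TMTpro 16plex LC-MS/MS with channel sums equalised. Thermal stability is expressed against control samples, from duplicates, as a log2 fold change.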
# [2] = compound: CN1CCN(c2nc(C3=C(c4c[nH]c5ccccc45)C(=O)NC3=O)c3ccccc3n2)CC1 [sotrastaurin]
# Summary of the method: as §1
# [3] = compound: CN1CC[C@H](c2c(O)cc(O)c3c(=O)cc(-c4ccccc4Cl)oc23)[C@H](O)C1 [alvocidib]
# Summary of the method: as §1
# [4] = compound: CN1CCc2c(c3ccccc3n2Cc2ccc(C(=O)NO)cc2)C1 [Tubastatin A]
# Summary of the method: as §1
# [5] = compound: CNC(=O)C1=CC=CC=C1NC2=NC(=NC=C2Cl)NC3=C(C=C(C=C3)N4CCOCC4)OC
# Summary of the method: as §1
# [6] = compound: CNC(=O)c1ccc(Nc2ncc(C(F)(F)F)c(NCc3nccnc3N(C)S(C)(=O)=O)n2)cc1 [defactinib]
# Summary of the method: as §1
# [7] = compound: CNCc1ccc(-c2[nH]c3cc(F)cc4c3c2CCNC4=O)cc1 [rucaparib]
# Summary of the method: as §1
# [8] = compound: CNc1nc(-c2ccc3c(N)n[nH]c3c2)cc(N2C[C@@H](C(=O)NC3CCCCC3)CC[C@H]2C)n1
# Summary of the method: as §1
# [9] = compound: COC(=O)N[C@@H](C)CNc1nccc(-c2cn(C(C)C)nc2-c2cc(Cl)cc(NS(C)(=O)=O)c2F)n1 [encorafenib]
# Summary of the method: as §1
# [10] = compound: COC(=O)[C@H](CCSC)NC(=O)C1=C(C=C(C=C1)NC[C@H](CS)N)C2=CC=CC=C2
# Summary of the method: as §1
# [11] = compound: COC1=CC=C(C=C1)CN2C=CC3=C2C=C(C=C3)C(=O)NO
# Summary of the method: as §1
# [12] = compound: CON(C)C(=O)N1N=C(c2cc(F)ccc2F)S[C@@]1(CCCN)c1ccccc1 [filanesib]
# Summary of the method: as §1
# [13] = compound: CO[C@H]1C[C@@H]2CC[C@@H](C)[C@@](O)(O2)C(=O)C(=O)N2CCCC[C@H]2C(=O)O[C@H]([C@H](C)C[C@@H]2CC[C@H](n3cnnn3)[C@H](OC)C2)CC(=O)[C@H](C)/C=C(\C)[C@@H](O)[C@@H](OC)C(=O)[C@H](C)C[C@H](C)/C=C/C=C/C=C/1C [zotarolimus]
# Summary of the method: as §1
# [14] = compound: COc1cc(C(=O)O)ccc1NC(=O)[C@@H]1N[C@@H](CC(C)(C)C)[C@](C#N)(c2ccc(Cl)cc2F)[C@H]1c1cccc(Cl)c1F [idasanutlin]
# Summary of the method: as §1
# [15] = compound: COc1cc(Nc2ncc3c(n2)-c2ccc(Cl)cc2C(c2c(F)cccc2OC)=NC3)ccc1C(=O)O [alisertib]
# Summary of the method: as §1
# [16] = compound: COc1cc2nc(-c3cc(F)ccc3O)nc(N[C@@H]3CNC[C@H]3C(C)(C)O)c2cc1OC
# Summary of the method: as §1
# [17] = compound: COc1cc2ncnc(Nc3ccc(F)c(Cl)c3)c2cc1OCCCN1CCOCC1 [gefitinib]
# Summary of the method: as §1
# [18] = compound: COc1cccc2cc(-c3nc([C@H]4CC[C@H](C(=O)O)CC4)n4ncnc(N)c34)[nH]c12
# Summary of the method: as §1
# [19] = compound: CS(=O)(=O)CCNCc1ccc(-c2ccc3ncnc(Nc4ccc(OCc5cccc(F)c5)c(Cl)c4)c3c2)o1 [lapatinib]
# Summary of the method: as §1
# [20] = compound: CS(=O)(=O)N1CCN(Cc2cc3nc(-c4cccc5[nH]ncc45)nc(N4CCOCC4)c3s2)CC1 [pictilisib]
# Summary of the method: as §1
Target,log2 fold change [1],log2 fold change [2],log2 fold change [3],log2 fold change [4],log2 fold change [5],log2 fold change [6],log2 fold change [7],log2 fold change [8],log2 fold change [9],log2 fold change [10],log2 fold change [11],log2 fold change [12],log2 fold change [13],log2 fold change [14],log2 fold change [15],log2 fold change [16],log2 fold change [17],log2 fold change [18],log2 fold change [19],log2 fold change [20]
NUP93 (UniProt Q8N1F7),inactive: -0.059,inactive: -0.144,inactive: -0.057,inactive: 0.02,inactive: -0.009,inactive: -0.052,inactive: 0.087,inactive: 0.002,inactive: 0.071,inactive: -0.042,inactive: 0.006,inactive: -0.044,inactive: 0.012,inactive: -0.033,inactive: -0.036,inactive: 0.018,inactive: -0.003,inactive: -0.087,inactive: -0.011,inactive: -0.011
NUP35 (UniProt Q8NFH5),inactive: -0.104,inactive: 0.002,inactive: -0.013,inactive: 0.021,inactive: -0.033,inactive: -0.071,inactive: 0.02,inactive: 0.016,inactive: 0.024,inactive: 0.06,inactive: -0.02,inactive: -0.011,inactive: -0.056,inactive: 0.002,inactive: -0.02,inactive: -0.062,inactive: -0.015,inactive: -0.019,inactive: -0.004,inactive: -0.051
OTC (UniProt P00480),inactive: -0.139,inactive: 0.097,inactive: 0.143,inactive: 0.031,inactive: 0.02,inactive: 0,inactive: -0.251,inactive: -0.161,inactive: 0.058,inactive: 0.082,inactive: -0.304,inactive: 0.03,inactive: -0.209,inactive: -0.019,inactive: 0.618,inactive: 0.285,inactive: 0.038,inactive: 0.237,inactive: -0.381,inactive: 0.259
NSUN2 (UniProt Q08J23),inactive: 0.008,inactive: -0.243,active: -0.328,inactive: -0.008,inactive: -0.081,active: -0.281,inactive: -0.021,inactive: -0.083,inactive: 0.004,inactive: 0.009,inactive: -0.153,inactive: -0.002,inactive: -0.046,inactive: 0.021,inactive: -0.022,inactive: -0.235,inactive: 0.015,inactive: -0.003,inactive: 0.035,inactive: -0.088
NUDC (UniProt Q9Y266),inactive: 0.017,inactive: 0.03,inactive: -0.066,inactive: 0,inactive: 0.012,inactive: -0.011,inactive: -0.074,inactive: 0.021,inactive: 0.051,inactive: 0.026,inactive: -0.013,inactive: -0.041,inactive: 0.04,inactive: -0.025,inactive: -0.028,inactive: 0.016,inactive: 0.012,inactive: 0.026,inactive: -0.013,inactive: 0.004
NUDT12 (UniProt Q9BQG2),inactive: -0.02,inactive: 0.035,inactive: -0.007,inactive: 0.011,inactive: 0.034,inactive: -0.045,inactive: -0.02,inactive: 0.039,inactive: -0.002,inactive: -0.036,inactive: 0.035,inactive: -0.01,inactive: 0.019,inactive: -0.056,inactive: -0.071,inactive: 0.03,inactive: 0.05,inactive: -0.008,inactive: 0.03,inactive: 0.058
OSBPL9 (UniProt Q96SU4),inactive: -0.171,inactive: -0.23,inactive: 0.061,inactive: 0.097,inactive: -0.041,inactive: -0.022,inactive: 0.298,inactive: 0.422,inactive: 0.133,inactive: -0.085,inactive: 0.023,inactive: 0.128,inactive: 0.076,inactive: 0.077,inactive: 0.132,inactive: -0.021,inactive: 0.219,inactive: -0.139,inactive: 0.37,inactive: -0.056
P4HB (UniProt P07237),inactive: 0.031,inactive: 0.05,inactive: 0.027,inactive: -0.045,inactive: 0.067,inactive: 0.014,inactive: -0.097,inactive: -0.048,inactive: -0.021,inactive: 0.044,inactive: -0.027,inactive: -0.007,inactive: -0.017,inactive: 0.007,inactive: -0.068,inactive: 0.012,inactive: 0.026,inactive: 0.022,inactive: -0.026,inactive: -0.015
OGFOD3 isoform 2 (UniProt Q6PK18),inactive: -0.049,inactive: 0.016,inactive: -0.021,inactive: -0.034,inactive: 0.101,inactive: -0.015,inactive: 0.146,inactive: -0.028,inactive: 0.074,inactive: -0.008,inactive: -0.211,inactive: -0.04,inactive: -0.054,inactive: -0.048,inactive: 0.069,inactive: 0.048,inactive: -0.022,inactive: -0.139,inactive: 0,inactive: 0.092
NT5DC3 (UniProt Q86UY8),inactive: 0.041,inactive: 0.02,inactive: -0.081,inactive: -0.048,inactive: -0.017,inactive: -0.017,inactive: -0.063,inactive: -0.035,inactive: -0.015,inactive: 0.021,inactive: 0.01,inactive: -0.018,inactive: -0.021,inactive: 0.019,inactive: -0.109,inactive: 0.045,inactive: -0.005,inactive: 0.047,inactive: 0.029,inactive: -0.047
NUDT9 (UniProt Q9BW91),inactive: -0.065,inactive: -0.023,inactive: -0.046,inactive: -0.029,inactive: 0.049,inactive: -0.047,inactive: -0.057,inactive: -0.035,inactive: 0.037,inactive: -0.027,inactive: -0.006,inactive: 0.011,inactive: 0.028,inactive: -0.007,inactive: -0.046,inactive: 0.018,inactive: 0.014,inactive: 0.028,inactive: -0.004,inactive: 0.05
NTPCR (UniProt Q9BSD7),inactive: -0.001,inactive: 0.02,inactive: -0.041,inactive: -0.039,inactive: -0.001,inactive: -0.035,inactive: -0.077,inactive: 0.028,inactive: -0.052,inactive: -0.014,inactive: 0.109,inactive: -0.107,inactive: 0,inactive: -0.055,inactive: -0.084,inactive: -0.051,inactive: -0.027,inactive: 0.018,inactive: -0.049,inactive: 0.074
OXCT1 (UniProt P55809),inactive: 0.023,inactive: 0.002,inactive: -0.06,inactive: -0.002,inactive: 0.028,inactive: -0.039,inactive: -0.08,inactive: 0.014,inactive: -0.019,inactive: 0.006,inactive: 0.08,inactive: -0.094,inactive: 0.021,inactive: -0.033,inactive: -0.041,inactive: 0.045,inactive: 0.035,inactive: 0.018,inactive: 0.012,inactive: 0.009
NUBP2 (UniProt Q9Y5Y2),inactive: 0.017,inactive: 0.016,inactive: -0.169,inactive: -0.043,inactive: -0.055,inactive: -0.07,inactive: 0.033,inactive: 0.047,inactive: 0.043,inactive: -0.006,inactive: -0.002,inactive: -0.044,inactive: 0.039,inactive: -0.052,inactive: -0.159,inactive: 0.041,inactive: -0.012,inactive: 0.015,inactive: -0.053,inactive: -0.071
NUTF2 (UniProt P61970),inactive: 0.102,inactive: -0.013,inactive: -0.111,inactive: 0.015,inactive: 0.024,inactive: -0.032,inactive: -0.052,inactive: 0.106,inactive: 0.004,inactive: 0.095,inactive: 0.028,inactive: -0.006,inactive: 0.003,inactive: 0.003,inactive: -0.055,inactive: -0.097,inactive: 0.084,inactive: 0.034,inactive: -0.006,inactive: -0.031
NUP54 (UniProt Q7Z3B4),inactive: -0.126,inactive: -0.042,inactive: -0.102,inactive: 0.073,inactive: -0.063,inactive: -0.058,inactive: 0.044,inactive: 0.073,inactive: 0.074,inactive: -0.02,inactive: 0.077,inactive: -0.064,inactive: 0.002,inactive: -0.03,inactive: 0.016,inactive: 0.065,inactive: -0.015,inactive: -0.011,inactive: -0.022,inactive: -0.005

# A stretch of the results above, as a working copy:
Target,log2 fold change [1],log2 fold change [2],log2 fold change [3],log2 fold change [4],log2 fold change [5],log2 fold change [6],log2 fold change [7],log2 fold change [8],log2 fold change [9],log2 fold change [10],log2 fold change [11],log2 fold change [12],log2 fold change [13],log2 fold change [14],log2 fold change [15],log2 fold change [16],log2 fold change [17],log2 fold change [18],log2 fold change [19],log2 fold change [20]
NTPCR (UniProt Q9BSD7),inactive: -0.001,inactive: 0.02,inactive: -0.041,inactive: -0.039,inactive: -0.001,inactive: -0.035,inactive: -0.077,inactive: 0.028,inactive: -0.052,inactive: -0.014,inactive: 0.109,inactive: -0.107,inactive: 0,inactive: -0.055,inactive: -0.084,inactive: -0.051,inactive: -0.027,inactive: 0.018,inactive: -0.049,inactive: 0.074
OXCT1 (UniProt P55809),inactive: 0.023,inactive: 0.002,inactive: -0.06,inactive: -0.002,inactive: 0.028,inactive: -0.039,inactive: -0.08,inactive: 0.014,inactive: -0.019,inactive: 0.006,inactive: 0.08,inactive: -0.094,inactive: 0.021,inactive: -0.033,inactive: -0.041,inactive: 0.045,inactive: 0.035,inactive: 0.018,inactive: 0.012,inactive: 0.009
